The target in this test is T1, FLAG-caspase 9, P55211.
T1 chain: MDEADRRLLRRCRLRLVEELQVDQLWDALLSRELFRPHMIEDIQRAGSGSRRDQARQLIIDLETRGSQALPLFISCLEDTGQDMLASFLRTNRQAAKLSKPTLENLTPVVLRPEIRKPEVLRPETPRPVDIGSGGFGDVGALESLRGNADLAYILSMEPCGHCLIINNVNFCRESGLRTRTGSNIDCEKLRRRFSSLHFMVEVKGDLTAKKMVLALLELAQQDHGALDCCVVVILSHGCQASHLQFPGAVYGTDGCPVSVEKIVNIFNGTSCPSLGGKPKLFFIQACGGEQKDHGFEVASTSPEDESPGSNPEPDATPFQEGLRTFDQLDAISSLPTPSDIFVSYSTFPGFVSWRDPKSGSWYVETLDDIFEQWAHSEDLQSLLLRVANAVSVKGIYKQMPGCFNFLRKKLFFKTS
Description: co-immunoprecipitation from co-transfected 293 cells: IP with anti-FLAG antibody, immunoblot with polyclonal anti-Myc antibody. The conditions noted are these: remark: other sources report otherwise. For orientation: Immunoblotting shows a protein as a band on a membrane.

No constants are given. Whether binding was seen depends on the method and setting. Binding seen in cells or lysates may run through a third protein. Some results given as binding are weak or reduced against the parent protein; the word gives no strength. Where a sequence is shown, tags or fusion partners need not be part of it.

B1: Myc-NOD1, Q9Y239 1-953 (protein, not shown: small tags and cut ends)
chain: MEEQGHSEMEIIPSESHPHIQLLKSNRELLVTHIRNTQCLVDNLLKNDYFSAEDAEIVCACPTQPDKVRKILDLVQSKGEEVSEFFLYLLQQLADAYVDLRPWLLEIGFSPSLLTQSKVVVNTDPVSRYTQQLRHHLGRDSKFVLCYAQKEELLLEEIYMDTIMELVGFSNESLGSLNSLACLLDHTTGILNEQGETIFILGDAGVGKSMLLQRLQSLWATGRLDAGVKFFFHFRCRMFSCFKESDRLCLQDLLFKHYCYPERDPEEVFAFLLRFPHVALFTFDGLDELHSDLDLSRVPDSSCPWEPAHPLVLLANLLSGKLLKGASKLLTARTGIEVPRQFLRKKVLLRGFSPSHLRAYARRMFPERALQDRLLSQLEANPNLCSLCSVPLFCWIIFRCFQHFRAAFEGSPQLPDCTMTLTDVFLLVTEVHLNRMQPSSLVQRNTRSPVETLHAGRDTLCSLGQVAHRGMEKSLFVFTQEEVQASGLQERDMQLGFLRALPELGPGGDQQSYEFFHLTLQAFFTAFFLVLDDRVGTQELLRFFQEWMPPAGAATTSCYPPFLPFQCLQGSGPAREDLFKNKDHFQFTNLFLCGLLSKAKQKLLRHLVPAAALRRKRKALWAHLFSSLRGYLKSLPRVQVESFNQVQAMPTFIWMLRCIYETQSQKVGQLAARGICANYLKLTYCNACSADCSALSFVLHHFPKRLALDLDNNNLNDYGVRELQPCFSRLTVLRLSVNQITDGGVKVLSEELTKYKIVTYLGLYNNQITDVGARYVTKILDECKGLTHLKLGKNKITSEGGKYLALAVKNSKSISEVGMWGNQVGDEGAKAFAEALRNHPSLTTLSLASNGISTEGGKSLARALQQNTSLEILWLTQNELNDEVAESLAEMLKVNQTLKHLWLIQNQITAKGTAQLADALQSNTGITEICLNGNLIKPEEAKVYEDEKRIICF
On to B1, for which the binding result is listed as “binds”.

The values above are taken from patent publication US20060194740A1, “NOD1 as an anti-tumor agent” (priority 2005, published 2006).
